# Patent US20150259408A1
# Substitutions are numbered along the chain they refer to. No constants are given. Whether binding was seen depends on the method and setting. Binding calls can cover weak binding; strength is not graded here.
# B1: humanized 15F7 variant H1L2 (Hu15F7VHv1/Hu15F7VLv2) (antibody, V domains shown)
# VH: EVQLQQSGAEVKKPGSSVKLSCKASGYTFTSYGLSWVKQRAGQGLEWIGEIFPRSGNTYYNEKFKGKATLTADKSSSTAYMELRSLRSEDTAVYFCARGVRSPGAMDYWGQGTLVTVSS
# VL: DIQMTQSPSSLSASVGDRVTITCKASEDIYNRLAWYQQKPGNAPKLLISGATSLETGVPSRFSGSGSGKDFTLTISSLQPEDFATYYCQQYWSIPYTFGGGTKVEIKR
# B2: humanized 15F7 variant H2L2 (Hu15F7VHv2/Hu15F7VLv2) (antibody, V domains shown)
# VH: B1 VH with A41P, L70I
# VL: B1 VL
# B3: humanized 15F7 variant H2L1 (Hu15F7VHv2/Hu15F7VLv1) (antibody, V domains shown)
# VH: B1 VH with A41P, L70I
# VL: B1 VL with P8S, K45R, F71Y, P80T, V104L
# B4: chimeric 15F7 (antibody, V domains shown)
# VH: B1 VH with E1Q, A9T, V11L, K12A, K13R, S16A, S17A, R87T, T91S, L114S
# VL: DIQMTQSSSSFSVSLGDRVTITCKASEDIYNRLAWYQQKPGNAPRLLISGATSLETGVPSRFSGSGSGKDYTLSITSLQTEDVATYYCQQYWSIPYTFGGGTNLEIKR
# B5: humanized 15F7 variant H1L1 (Hu15F7VHv1/Hu15F7VLv1) (antibody, V domains shown)
# VH: B1 VH
# VL: B1 VL with P8S, K45R, F71Y, P80T, V104L
# B6: mouse monoclonal antibody 15F7 (antibody, V domains shown)
# VH: B1 VH with E1Q, A9T, V11L, K12A, K13R, S16A, S17A, R87T, T91S, L114S
# VL: B4 VL
# B7: mouse monoclonal antibody 13G10 (antibody, V domains shown)
# VH: QVQLQQSGAELARPGASVKLSCKASGYTFTNYGISWVKQRTGQGLEWIGAIYPRSGNTYYNEKFKGKATLTADKSSSTAYMELRSLTSEDSAVYFCARERDYGSSYALDYWGQGTSVTVSS
# VL: B4 VL with S63T, I94P, Y96R, N103K
# Target: LAMA4 / purified His-LAMA4 (species not stated)
# Test: ForteBio; goat anti-human Fc sensor loaded with antibody at 5 ug/ml, His-LAMA4 at 10 ug/ml
row,binding,Binder
1,binds,B1
2,binds,B2
3,binds,B3
4,binds,B4
5,binds,B5

# Target: LAMA4 / purified His-LAMA4 (species not stated)
# Test: ForteBio; anti-His sensor loaded with His-LAMA4 at 10 ug/ml, antibody at 5 ug/ml
row,binding,Binder
1,binds,B1
2,binds,B2
3,binds,B3
4,binds,B6
5,binds,B4
6,binds,B5

# Target: LAMA4 / purified His-LAMA4 (species not stated)
# Test: ForteBio; antibody constant at 100 nM, LAMA4 at 3.125 to 200 nM; raw and fitted lines
row,binding,Binder
1,binds,B7
2,binds,B6

# Target: LAMA4 / purified His-LAMA4 (species not stated)
# Test: BLI (ForteBio); anti-His sensor with His-LAMA4 then antibody, and anti-human Fc sensor with antibody then His-LAMA4
row,binding,Binder
1,binds,B1
2,binds,B2
3,binds,B3
4,binds,B6
5,binds,B4
6,binds,B5

# Target: LAMA4 / purified His-LAMA4 (species not stated)
# Test: SPR (Biacore)
row,binding,Binder
1,binds,B3
2,binds,B5

# Target: LAMA4 / purified His-LAMA4 (species not stated)
# Test: BLI (ForteBio; antibody at 100 nM, LAMA4 concentration varied) and SPR (Biacore)
row,binding,Binder
1,binds,B6
